This assay has as its target transcription factor E2F-4 (human (endogenous in HCT116)), Q16254. The assay is described as follows: co-IP; p53+/+ and p53−/− HCT116 cells incubated with or without 150 μg/mL fucoidan for 24 h; 500 μg protein immunoprecipitated with anti-E2F-1 or anti-E2F-4 antibodies (6 h, 4 °C, protein A-Sepharose), blot probed with anti-pRB. Conditions: remark: other sources report otherwise.

We go through 1 molecule from PMC5484104.

No constants are given. Whether binding was seen depends on the method and setting. Binding seen in cells or lysates may run through a third protein. Some entries that bind do so weakly or less than the wild type.

B1: retinoblastoma protein (pRB), P06400 1-928 (protein)
chain: MPPKTPRKTAATAAAAAAEPPAPPPPPPPEEDPEQDSGPEDLPLVRLEFEETEEPDFTALCQKLKIPDHVRERAWLTWEKVSSVDGVLGGYIQKKKELWGICIFIAAVDLDEMSFTFTELQKNIEISVHKFFNLLKEIDTSTKVDNAMSRLLKKYDVLFALFSKLERTCELIYLTQPSSSISTEINSALVLKVSWITFLLAKGEVLQMEDDLVISFQLMLCVLDYFIKLSPPMLLKEPYKTAVIPINGSPRTPRRGQNRSARIAKQLENDTRIIEVLCKEHECNIDEVKNVYFKNFIPFMNSLGLVTSNGLPEVENLSKRYEEIYLKNKDLDARLFLDHDKTLQTDSIDSFETQRTPRKSNLDEEVNVIPPHTPVRTVMNTIQQLMMILNSASDQPSENLISYFNNCTVNPKESILKRVKDIGYIFKEKFAKAVGQGCVEIGSQRYKLGVRLYYRVMESMLKSEEERLSIQNFSKLLNDNIFHMSLLACALEVVMATYSRSTSQNLDSGTDLSFPWILNVLNLKAFDFYKVIESFIKAEGNLTREMIKHLERCEHRIMESLAWLSDSPLFDLIKQSKDREGPTDHLESACPLNLPLQNNHTAADMYLSPVRSPKKKGSTTRVNSTANAETQATSAFQTQKPLKSTSLSLFYKKVYRLAYLRLNTLCERLLSEHPELEHIIWTLFQHTLQNEYELMRDRHLDQIMMCSMYGICKVKNIDLKFKIIVTAYKDLPHAVQETFKRVLIKEEEYDSIIVFYNSVFMQRLKTNILQYASTRPPTLSPIPHIPRSPYKFPSSPLRIPGGNIYISPLKSPYKISEGLPTPTKMTPRSRILVSIGESFGTSEKFQKINQMVCNSDRVLKRSAEGSNPPKPLKKLRFDIEGSDEADGSKHLPGESKFQQKLAEMTSTRTRMQKQKMNDSMDTSNKEEK
Consider B1, for which the binding entry is “binds”.
